Reference: PMC6829252

Molecular target: XopAI-ΔN70 (Xanthomonas axonopodis pv. citri strain XW19)
Assay: other fluorescence titration; intrinsic Trp fluorescence; 5 μM XopAI-dN70 incubated with various concentrations of ligand at 4 °C for 30 min in 50 mM NaH2PO4 pH 8.0; excitation 280 nm, emission 300-400 nm; both purified

B1: ArgP14aa synthetic peptide (peptide)
peptide: SSSPRPLSPLVELN
  binding: binds

These are yes or no findings as the source states them, for the method shown. Binding can be weak; no strength is given.
